Assay results from article PMC3737554.
These are yes or no findings as the source states them, for the method shown. For some of these results: In cells and extracts the contact can be indirect. Some binding calls cover weakened binding; strength is not graded here. Values belong to the molecule of their own block, whether it stands above or below them.

Sequences of proteins named here, by UniProt entry; tags and fusion partners are left off. A change or cut given only in a name is not applied to a line headed by its entry.
UniProt P03372: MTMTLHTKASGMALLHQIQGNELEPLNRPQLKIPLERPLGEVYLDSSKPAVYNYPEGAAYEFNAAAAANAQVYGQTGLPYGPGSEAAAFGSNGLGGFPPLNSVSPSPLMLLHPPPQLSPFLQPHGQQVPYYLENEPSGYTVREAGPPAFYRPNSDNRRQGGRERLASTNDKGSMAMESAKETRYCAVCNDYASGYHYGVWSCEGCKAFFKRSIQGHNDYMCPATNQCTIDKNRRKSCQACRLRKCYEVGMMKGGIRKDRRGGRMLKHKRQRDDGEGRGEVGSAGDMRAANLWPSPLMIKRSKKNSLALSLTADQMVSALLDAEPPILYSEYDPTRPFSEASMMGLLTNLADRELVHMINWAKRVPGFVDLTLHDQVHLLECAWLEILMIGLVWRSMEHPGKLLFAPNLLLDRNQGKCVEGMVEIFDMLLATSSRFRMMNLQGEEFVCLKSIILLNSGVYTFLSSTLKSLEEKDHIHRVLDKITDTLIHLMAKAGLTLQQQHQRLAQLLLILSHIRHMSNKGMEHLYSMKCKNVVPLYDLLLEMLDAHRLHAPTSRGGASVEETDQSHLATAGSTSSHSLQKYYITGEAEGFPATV
UniProt O94953: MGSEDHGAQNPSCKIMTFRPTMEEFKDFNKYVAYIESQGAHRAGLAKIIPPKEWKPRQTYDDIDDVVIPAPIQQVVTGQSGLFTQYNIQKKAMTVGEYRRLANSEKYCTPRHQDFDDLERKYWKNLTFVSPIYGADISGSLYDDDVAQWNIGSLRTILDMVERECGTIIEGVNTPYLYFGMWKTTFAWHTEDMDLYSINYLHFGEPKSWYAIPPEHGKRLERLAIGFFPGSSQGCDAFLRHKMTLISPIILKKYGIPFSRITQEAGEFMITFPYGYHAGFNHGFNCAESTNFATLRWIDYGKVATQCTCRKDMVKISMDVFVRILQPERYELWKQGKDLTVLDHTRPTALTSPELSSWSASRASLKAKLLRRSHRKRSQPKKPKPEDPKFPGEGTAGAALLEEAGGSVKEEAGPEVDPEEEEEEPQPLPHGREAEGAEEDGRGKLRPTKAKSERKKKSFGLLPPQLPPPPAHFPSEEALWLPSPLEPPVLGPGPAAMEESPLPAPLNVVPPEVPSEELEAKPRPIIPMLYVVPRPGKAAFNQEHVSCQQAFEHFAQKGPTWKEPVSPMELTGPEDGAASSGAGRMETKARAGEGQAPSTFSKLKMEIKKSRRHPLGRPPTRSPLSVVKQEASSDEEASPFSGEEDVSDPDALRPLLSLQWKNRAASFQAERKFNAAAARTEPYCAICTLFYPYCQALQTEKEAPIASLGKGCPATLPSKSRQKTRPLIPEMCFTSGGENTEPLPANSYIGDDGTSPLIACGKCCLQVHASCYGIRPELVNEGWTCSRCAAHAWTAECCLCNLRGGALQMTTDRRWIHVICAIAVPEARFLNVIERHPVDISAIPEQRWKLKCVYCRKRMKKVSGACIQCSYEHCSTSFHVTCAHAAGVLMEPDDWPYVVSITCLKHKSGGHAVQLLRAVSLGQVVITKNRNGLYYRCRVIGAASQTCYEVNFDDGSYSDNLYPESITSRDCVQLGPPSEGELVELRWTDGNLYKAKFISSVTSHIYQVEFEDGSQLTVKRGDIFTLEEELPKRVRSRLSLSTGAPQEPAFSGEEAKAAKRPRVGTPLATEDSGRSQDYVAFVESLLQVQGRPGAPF
UniProt P23771: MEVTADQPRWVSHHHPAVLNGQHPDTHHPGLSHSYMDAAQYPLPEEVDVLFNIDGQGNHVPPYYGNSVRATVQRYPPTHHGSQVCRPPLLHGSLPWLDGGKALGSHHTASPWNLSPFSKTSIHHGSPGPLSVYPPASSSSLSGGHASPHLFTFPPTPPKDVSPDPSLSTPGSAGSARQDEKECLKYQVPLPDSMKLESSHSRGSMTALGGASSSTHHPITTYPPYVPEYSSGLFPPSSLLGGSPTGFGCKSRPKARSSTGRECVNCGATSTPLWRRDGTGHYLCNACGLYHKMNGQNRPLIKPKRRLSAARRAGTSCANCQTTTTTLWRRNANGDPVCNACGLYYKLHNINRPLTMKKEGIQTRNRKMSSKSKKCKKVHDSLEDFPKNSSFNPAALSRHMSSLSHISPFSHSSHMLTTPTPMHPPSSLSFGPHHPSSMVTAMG

Key:
[1] = target: estrogen receptor (ER), expressed from pCMV-ER in HEK293T cells (UniProt P03372); assay: co-IP; HEK293T cells in serum-containing or steroid-depleted media with 10 nM E2, transfected 48 h with vectors for ER and wild-type or demethylase-dead KDM4B; IP as for the endogenous proteins, western blot
[2] = target: T1, FOXA1, endogenous (human (endogenous in MCF-7)) (UniProt P55317); assay: co-IP; MCF-7 cells transiently transfected with pCMV-HA-KDM4B for 48 h; IP with anti-FOXA1 antibody, western blot with a KDM4B antibody
T1 sequence: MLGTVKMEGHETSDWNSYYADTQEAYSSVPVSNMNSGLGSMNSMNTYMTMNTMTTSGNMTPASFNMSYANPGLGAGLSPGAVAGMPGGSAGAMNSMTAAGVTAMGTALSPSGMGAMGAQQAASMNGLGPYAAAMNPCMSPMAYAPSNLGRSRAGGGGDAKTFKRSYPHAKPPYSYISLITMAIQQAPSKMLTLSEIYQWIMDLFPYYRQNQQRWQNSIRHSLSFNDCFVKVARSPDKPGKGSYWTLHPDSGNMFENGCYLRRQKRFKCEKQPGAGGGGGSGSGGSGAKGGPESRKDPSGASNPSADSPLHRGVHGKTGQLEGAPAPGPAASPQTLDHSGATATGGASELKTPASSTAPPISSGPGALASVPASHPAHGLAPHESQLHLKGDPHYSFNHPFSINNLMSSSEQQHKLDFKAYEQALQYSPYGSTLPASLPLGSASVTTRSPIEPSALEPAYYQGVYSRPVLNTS

[3] = target: KDM4B (histone H3 lysine 9 tri-/di-methyl demethylase), endogenous (human (endogenous in MCF-7 and T47D)) (UniProt O94953); assay: co-IP; endogenous proteins; T47D cells grown in serum-containing media; IP with antibodies to KDM4B, GATA-3 or isotype control, western blot with reciprocal antibodies
[4] = target: GATA-3, endogenous (human (endogenous in T47D)) (UniProt P23771); assay: re-ChIP; T47D cells, steroid-depleted media, with or without 10 nM E2 for 45 min, formaldehyde-fixed chromatin; first ChIP with anti-GATA-3, eluted in 10 mM DTT, second ChIP with anti-KDM4B or isotype control; quantitative PCR of Pro A, Enh1 and Enh2 of the ER gene
[5] = target: GATA-3, endogenous (human (endogenous in T47D)) (UniProt P23771); assay: co-IP; endogenous proteins; T47D cells grown in serum-containing media; IP with antibodies to KDM4B, GATA-3 or isotype control, western blot with reciprocal antibodies
[6] = target: KDM4B (histone H3 lysine 9 tri-/di-methyl demethylase), endogenous (human (endogenous in MCF-7 and T47D)) (UniProt O94953); assay: co-IP; endogenous proteins; MCF-7 cells grown in serum-containing media; IP with anti-ER, anti-KDM4B or control antibodies, western blot

binding [1]: binds
Molecule: HA-KDM4B H189G/E191Q (demethylase-dead), expressed in HEK293T cells (from UniProt O94953 1-1096) (enzyme)

binding [2]: binds
Molecule: HA-KDM4B, wild type, expressed in MCF-7 cells (from UniProt O94953 1-1096) (enzyme)

binding [1]: binds
Molecule: HA-KDM4B, wild type, expressed in HEK293T cells (from UniProt O94953 1-1096) (enzyme)

binding [3]: binds
Molecule: GATA-3, endogenous (from UniProt P23771 1-443)

binding [4]: binds
binding [5]: binds
Molecule: KDM4B (histone H3 lysine 9 tri-/di-methyl demethylase), endogenous (from UniProt O94953 1-1096) (enzyme)

binding [6]: binds
B1: FOXA1, endogenous (protein, UniProt P55317 1-472)
chain: MLGTVKMEGHETSDWNSYYADTQEAYSSVPVSNMNSGLGSMNSMNTYMTMNTMTTSGNMTPASFNMSYANPGLGAGLSPGAVAGMPGGSAGAMNSMTAAGVTAMGTALSPSGMGAMGAQQAASMNGLGPYAAAMNPCMSPMAYAPSNLGRSRAGGGGDAKTFKRSYPHAKPPYSYISLITMAIQQAPSKMLTLSEIYQWIMDLFPYYRQNQQRWQNSIRHSLSFNDCFVKVARSPDKPGKGSYWTLHPDSGNMFENGCYLRRQKRFKCEKQPGAGGGGGSGSGGSGAKGGPESRKDPSGASNPSADSPLHRGVHGKTGQLEGAPAPGPAASPQTLDHSGATATGGASELKTPASSTAPPISSGPGALASVPASHPAHGLAPHESQLHLKGDPHYSFNHPFSINNLMSSSEQQHKLDFKAYEQALQYSPYGSTLPASLPLGSASVTTRSPIEPSALEPAYYQGVYSRPVLNTS
